Reference: patent US12410157B2, “Compound useful as toll-like receptor 7 activation inhibitor” (TOYAMA PREFECTURAL UNIVERSITY, priority 2020, dated 2025)
Some entries share one result that the patent states for a list of compounds.

What follows are compounds tested against T1, mouse TLR7 (Mus musculus, UniProt P58681) (assay: Inhibition of TLR7 activation in mouse TLR7-expressing NF-κB-GFP reporter Ba/F3 cells). Conditions: relative to CB-7 (IC50 3.12 μM), Table 3.
T1 construct: expressed in transfected cells; host or cells: Ba/F3 cells (provided by Prof. Kensuke Miyake, University of Tokyo)
T1 sequence (P58681 27-1050): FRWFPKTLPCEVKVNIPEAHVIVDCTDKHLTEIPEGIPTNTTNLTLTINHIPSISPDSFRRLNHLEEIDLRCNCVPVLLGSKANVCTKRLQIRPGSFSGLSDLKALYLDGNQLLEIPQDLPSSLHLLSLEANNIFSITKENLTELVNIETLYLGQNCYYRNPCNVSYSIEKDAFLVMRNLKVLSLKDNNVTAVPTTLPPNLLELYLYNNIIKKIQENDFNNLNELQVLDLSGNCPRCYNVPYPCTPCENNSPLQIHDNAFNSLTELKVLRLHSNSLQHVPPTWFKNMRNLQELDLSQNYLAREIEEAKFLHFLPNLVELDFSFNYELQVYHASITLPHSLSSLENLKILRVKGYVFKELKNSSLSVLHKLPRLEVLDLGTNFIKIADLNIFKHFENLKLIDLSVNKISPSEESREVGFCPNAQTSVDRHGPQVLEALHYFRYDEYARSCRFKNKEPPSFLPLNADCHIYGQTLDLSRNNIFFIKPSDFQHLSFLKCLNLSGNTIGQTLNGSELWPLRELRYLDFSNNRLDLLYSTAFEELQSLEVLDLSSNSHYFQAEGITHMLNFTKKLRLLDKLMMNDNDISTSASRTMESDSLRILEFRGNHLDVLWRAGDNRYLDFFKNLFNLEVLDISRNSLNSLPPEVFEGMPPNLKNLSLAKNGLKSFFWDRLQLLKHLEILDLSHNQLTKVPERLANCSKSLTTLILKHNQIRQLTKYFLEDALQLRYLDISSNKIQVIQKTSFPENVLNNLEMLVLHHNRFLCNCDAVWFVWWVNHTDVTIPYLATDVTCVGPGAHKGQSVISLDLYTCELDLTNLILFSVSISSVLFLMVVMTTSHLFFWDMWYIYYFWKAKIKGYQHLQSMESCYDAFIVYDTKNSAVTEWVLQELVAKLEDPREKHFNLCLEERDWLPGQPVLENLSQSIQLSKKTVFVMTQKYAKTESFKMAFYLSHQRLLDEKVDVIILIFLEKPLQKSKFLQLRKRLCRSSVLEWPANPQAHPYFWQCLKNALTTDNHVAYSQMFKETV
Type: cell-based
Source text: Mouse TLR7-expressing reporter cells (Ba/F3 cells) were used to evaluate inhibition of TLR7 activation in each derivative and CB-7. These cells were provided by Professor Kensuke Miyake (Department of Infection Genetics, Institute of Medical Science, University of Tokyo). These cells have been transfected with a reporter gene that connects GFP gene downstream of the promoter region of NF-κB. Therefore, the expression of GFP is enhanced by the addition of a ligand for TLR7 expressed by the cells. The fluorescence intensity of GFP was attenuated by the addition of each derivative, and the inhibition of TLR7 activation by each derivative was evaluated as an indicator.
Loxoribine (Alexis Biochemicals) was used as the ligand for mouse TLR7. Gardiquimod (Invivogen) was used as the ligand for human TLR7.
Ba/F3 cells cultured in RPMI 1640 medium containing 10% (v/v) fetal calf serum (FCS), 50 U/mL penicillin, 50 μg/mL streptomycin, 2 mM L-glutamine, […] 2-mercaptoethanol, 1 ng/mL interleukin-3 were aliquoted into 96-well plates so that the number of cells per well was 1.0×10^5 cells/100 μL. 50 μL of each derivative or CB-7, prepared to final concentrations of 1, 5, 10, 25, 50, and 100 µM, was added to each well. 96-well plates were incubated at 37° C. for 30 minutes in the presence of 5% CO2. Next, 250 μg/mL Roxoribin was added to each well and incubated for 18 hours. At the end of incubation, cells were washed with PBS (FACS buffer) containing 2.5% (v/v) FCS and suspended in 200 μL of FACS buffer containing 25 μg/mL […] for each cell. GFP fluorescence intensities of the cells were analyzed by flow cytometry. Flow cytometry measurement was performed on a FACSCanto™ II (Becton Dickinson) and data were analyzed with FlowJo software (Tree Star). The MFI (%) upon stimulation with roxoribin in the presence of […] derivatives or CB-7 was calculated using the MFI upon stimulation with roxoribin alone as 100%, and then IC50 (chemical compound concentration that inhibits activity by 50%) was calculated by logistic regression analysis.
The evaluation of the TLR7 activation inhibition by B2-24-4-5A·HCOOH was performed by the method described in Example 2. CB-7 and B2-24-4·HCl were used as controls.
For `C=C(C)[C@@H]1CC[C@]2(COC(=O)C2)C[C@H]1c1ccc(CN(CC)CC)cc1` [B2-5A-6], the “TLR7 activation inhibitory activity higher than CB-7” value was “more than 2 fold”.
For `C=C(C)[C@@H]1CC[C@]2(COC(=O)C2)C[C@H]1c1ccc(CN2CCCC2)cc1` [B2-5A-9], the “TLR7 activation inhibitory activity higher than CB-7” value was “more than 2 fold”.
`C=C[C@]1(CO)CC[C@@H](C(=C)C)[C@H](c2ccc(COCCOC)cc2)C1` [B2-13] was tested, and the “TLR7 activation inhibitory activity higher than CB-7” value was “more than 2 fold”.
For `C=C[C@]1(CC)CC[C@@H](C(=C)C)[C@H](c2ccc(CN(CC)CC)cc2)C1` [B2-22], the “TLR7 activation inhibitory activity higher than CB-7” value was “more than 2 fold”.
In the case of `C=C[C@]1(CO)CC[C@@H](C(=C)C)[C@H](c2ccc(CN3CCC(F)(F)CC3)cc2)C1` [B2-24-1], the “TLR7 activation inhibitory activity higher than CB-7” value was “more than 2 fold”.
With `C=C[C@]1(CO)CC[C@@H](C(=C)C)[C@H](c2ccc(CN3CCOCC3)cc2)C1` [B2-24-2] the “TLR7 activation inhibitory activity higher than CB-7” value was “more than 2 fold”.
`C=C[C@]1(CO)CC[C@@H](C(=C)C)[C@H](c2ccc(CN3CC(F)(F)C3)cc2)C1` [B2-24-3] was tested, and the “TLR7 activation inhibitory activity higher than CB-7” value was “more than 2 fold”.
`C=C[C@]1(CO)CC[C@@H](C(=C)C)[C@H](c2ccc(CN3CCCC3)cc2)C1` [B2-24] was tested, and the “TLR7 activation inhibitory activity higher than CB-7” value was “more than 2 fold”.
With `C=C[C@]1(CO)CC[C@@H](C(=C)C)[C@H](c2ccc(COCCCO)cc2)C1` [B2-26] the “TLR7 activation inhibitory activity higher than CB-7” value was “more than 2 fold”.
